The values below come from article PMC12808752.

The test deals with T1, Euchromatic histone lysine methyltransferase 2 (EHMT2) (human (endogenous in uveal melanoma cell lines)), Q96KQ7.
T1 chain: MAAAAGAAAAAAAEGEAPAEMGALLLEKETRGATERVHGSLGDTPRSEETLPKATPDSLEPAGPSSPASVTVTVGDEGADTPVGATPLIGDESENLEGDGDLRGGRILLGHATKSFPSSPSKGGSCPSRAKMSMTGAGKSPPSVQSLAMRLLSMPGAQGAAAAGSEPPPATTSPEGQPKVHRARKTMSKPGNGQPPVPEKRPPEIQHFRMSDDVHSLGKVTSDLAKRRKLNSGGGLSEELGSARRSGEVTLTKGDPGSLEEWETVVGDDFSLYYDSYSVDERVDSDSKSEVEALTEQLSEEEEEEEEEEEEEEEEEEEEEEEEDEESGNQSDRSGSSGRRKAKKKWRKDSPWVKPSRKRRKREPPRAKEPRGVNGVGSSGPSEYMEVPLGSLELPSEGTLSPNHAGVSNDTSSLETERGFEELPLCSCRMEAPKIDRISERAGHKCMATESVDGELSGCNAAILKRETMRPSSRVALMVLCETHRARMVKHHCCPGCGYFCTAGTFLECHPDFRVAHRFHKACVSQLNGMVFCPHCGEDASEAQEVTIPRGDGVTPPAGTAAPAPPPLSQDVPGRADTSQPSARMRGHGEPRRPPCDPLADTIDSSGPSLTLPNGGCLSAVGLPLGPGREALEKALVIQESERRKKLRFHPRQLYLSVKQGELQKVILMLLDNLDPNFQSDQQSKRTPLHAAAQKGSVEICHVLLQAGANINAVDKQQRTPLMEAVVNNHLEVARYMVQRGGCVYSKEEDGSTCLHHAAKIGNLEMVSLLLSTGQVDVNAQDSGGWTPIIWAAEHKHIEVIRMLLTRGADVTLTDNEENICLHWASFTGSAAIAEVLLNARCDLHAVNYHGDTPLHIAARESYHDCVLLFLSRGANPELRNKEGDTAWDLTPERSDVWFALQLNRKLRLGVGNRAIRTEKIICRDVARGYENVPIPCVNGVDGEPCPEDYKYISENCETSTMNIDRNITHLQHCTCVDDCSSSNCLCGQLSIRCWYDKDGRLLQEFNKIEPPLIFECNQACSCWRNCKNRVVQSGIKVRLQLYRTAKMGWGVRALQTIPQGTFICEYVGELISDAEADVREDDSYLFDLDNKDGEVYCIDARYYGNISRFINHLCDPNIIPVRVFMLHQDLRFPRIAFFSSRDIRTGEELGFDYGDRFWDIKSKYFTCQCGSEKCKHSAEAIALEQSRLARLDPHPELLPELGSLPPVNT
The test is described as follows: co-IP; UM cells; EHMT2 antibody listed at 1:100 for immunoprecipitation, EHMT1 antibody at 1:1000 for Western blot; no further conditions shown (Appendix Fig. S1A). Conditions: remark: other sources report otherwise. In general terms: A western blot detects proteins with antibodies after separation by electrophoresis.

Results are given in words; binding and its absence hold for the method and conditions named. Binding seen in cells or lysates may run through a third protein. Tags and fused reporters may be left off the sequences shown.

B1: EHMT1, Q9H9B1 1-1298 (enzyme)
chain: MAAADAEAVPARGEPQQDCCVKTELLGEETPMAADEGSAEKQAGEAHMAADGETNGSCENSDASSHANAAKHTQDSARVNPQDGTNTLTRIAENGVSERDSEAAKQNHVTADDFVQTSVIGSNGYILNKPALQAQPLRTTSTLASSLPGHAAKTLPGGAGKGRTPSAFPQTPAAPPATLGEGSADTEDRKLPAPGADVKVHRARKTMPKSVVGLHAASKDPREVREARDHKEPKEEINKNISDFGRQQLLPPFPSLHQSLPQNQCYMATTKSQTACLPFVLAAAVSRKKKRRMGTYSLVPKKKTKVLKQRTVIEMFKSITHSTVGSKGEKDLGASSLHVNGESLEMDSDEDDSEELEEDDGHGAEQAAAFPTEDSRTSKESMSEADRAQKMDGESEEEQESVDTGEEEEGGDESDLSSESSIKKKFLKRKGKTDSPWIKPARKRRRRSRKKPSGALGSESYKSSAGSAEQTAPGDSTGYMEVSLDSLDLRVKGILSSQAEGLANGPDVLETDGLQEVPLCSCRMETPKSREITTLANNQCMATESVDHELGRCTNSVVKYELMRPSNKAPLLVLCEDHRGRMVKHQCCPGCGYFCTAGNFMECQPESSISHRFHKDCASRVNNASYCPHCGEESSKAKEVTIAKADTTSTVTPVPGQEKGSALEGRADTTTGSAAGPPLSEDDKLQGAASHVPEGFDPTGPAGLGRPTPGLSQGPGKETLESALIALDSEKPKKLRFHPKQLYFSARQGELQKVLLMLVDGIDPNFKMEHQNKRSPLHAAAEAGHVDICHMLVQAGANIDTCSEDQRTPLMEAAENNHLEAVKYLIKAGALVDPKDAEGSTCLHLAAKKGHYEVVQYLLSNGQMDVNCQDDGGWTPMIWATEYKHVDLVKLLLSKGSDINIRDNEENICLHWAAFSGCVDIAEILLAAKCDLHAVNIHGDSPLHIAARENRYDCVVLFLSRDSDVTLKNKEGETPLQCASLNSQVWSALQMSKALQDSAPDRPSPVERIVSRDIARGYERIPIPCVNAVDSEPCPSNYKYVSQNCVTSPMNIDRNITHLQYCVCIDDCSSSNCMCGQLSMRCWYDKDGRLLPEFNMAEPPLIFECNHACSCWRNCRNRVVQNGLRARLQLYRTRDMGWGVRSLQDIPPGTFVCEYVGELISDSEADVREEDSYLFDLDNKDGEVYCIDARFYGNVSRFINHHCEPNLVPVRVFMAHQDLRFPRIAFFSTRLIEAGEQLGFDYGERFWDIKGKLFSCRCGSPKCRHSSAALAQRQASAAQEAQEDGLPDTSSAAAADPL
B1: the binding result was “no binding”.
